Literature values as cited in paper PMC3951241 (Journal of medicinal chemistry, 2013).

By UniProt entry, the sequences of proteins in these tests, tags left out. Residues count along the entry.
UniProt P62813, 28-455: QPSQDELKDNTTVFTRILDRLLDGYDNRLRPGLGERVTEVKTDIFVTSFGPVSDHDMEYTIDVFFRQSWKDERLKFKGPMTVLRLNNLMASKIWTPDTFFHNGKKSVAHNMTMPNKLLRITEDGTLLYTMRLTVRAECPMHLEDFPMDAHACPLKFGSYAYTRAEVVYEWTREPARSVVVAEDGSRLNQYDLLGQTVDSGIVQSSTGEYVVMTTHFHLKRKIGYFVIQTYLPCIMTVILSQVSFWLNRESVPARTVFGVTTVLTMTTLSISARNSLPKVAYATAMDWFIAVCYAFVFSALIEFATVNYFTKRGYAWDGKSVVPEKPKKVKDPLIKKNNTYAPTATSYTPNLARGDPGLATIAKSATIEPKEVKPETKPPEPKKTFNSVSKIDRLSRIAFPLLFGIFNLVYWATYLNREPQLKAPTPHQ
UniProt P63138, 26-474: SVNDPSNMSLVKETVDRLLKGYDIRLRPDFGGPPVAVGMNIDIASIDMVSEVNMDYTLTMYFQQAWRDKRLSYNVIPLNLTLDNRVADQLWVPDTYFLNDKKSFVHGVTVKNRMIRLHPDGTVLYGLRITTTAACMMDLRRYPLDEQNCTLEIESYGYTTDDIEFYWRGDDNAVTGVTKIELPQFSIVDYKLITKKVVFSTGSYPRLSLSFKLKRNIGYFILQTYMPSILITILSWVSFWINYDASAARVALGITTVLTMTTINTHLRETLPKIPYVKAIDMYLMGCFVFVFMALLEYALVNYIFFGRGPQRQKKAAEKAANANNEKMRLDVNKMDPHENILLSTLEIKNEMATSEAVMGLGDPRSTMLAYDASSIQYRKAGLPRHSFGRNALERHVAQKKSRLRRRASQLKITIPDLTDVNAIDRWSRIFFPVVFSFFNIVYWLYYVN

Biological target: rat α1β2γ2L type GABAA receptors expressed in Xenopus laevis oocytes (Rattus norvegicus, UniProt P62813+P63138)
Settings: 1 μM compound, 2 μM GABA; literature values ref 48; cited from earlier work

## CC(=O)[C@H]1CC[C@H]2[C@@H]3CC[C@H]4C[C@H](O)CC[C@]4(C)[C@H]3C(=O)C[C@]12C [compound 6, alphaxalone]
  oocyte electrophysiology 1 μM, ratio of currents in presence/absence of compound: 4.70 ± 1.11
